Test results: the supplement of paper PMC12823440, “Inhibitors supercharge kinase turnover through native proteolytic circuits” (Nature, 2025)
Structures can show the parent of a compound that is named as a salt. Some of the results follow. Hit calls seldom repeat between salt and free forms of one compound.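 In K562 cells expressing nanoluciferase-fused kinases, luminescence was recorded at 4 h intervals between 2 and 18 h, normalized as percent of control with DMSO at 100% and a positive control at 0%. A significant (2 sigma) signal drop marks a time point as decreased. The authors' rule for a hit is not shown and takes in more than the number of time points.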

Amino acid sequences for entries named in this document (tags omitted). A change or cut given only in a name is not applied to a line headed by its entry.
UniProt P28482, whole entry: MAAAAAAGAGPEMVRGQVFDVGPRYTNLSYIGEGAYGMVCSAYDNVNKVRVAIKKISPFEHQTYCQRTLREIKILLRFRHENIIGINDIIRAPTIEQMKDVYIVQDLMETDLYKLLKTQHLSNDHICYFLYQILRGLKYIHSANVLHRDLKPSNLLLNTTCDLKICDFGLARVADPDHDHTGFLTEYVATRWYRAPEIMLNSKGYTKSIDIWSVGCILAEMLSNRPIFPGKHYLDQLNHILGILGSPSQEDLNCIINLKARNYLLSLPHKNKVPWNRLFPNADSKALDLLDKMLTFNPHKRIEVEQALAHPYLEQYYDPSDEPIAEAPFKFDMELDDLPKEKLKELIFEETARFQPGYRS
UniProt P31152, whole entry: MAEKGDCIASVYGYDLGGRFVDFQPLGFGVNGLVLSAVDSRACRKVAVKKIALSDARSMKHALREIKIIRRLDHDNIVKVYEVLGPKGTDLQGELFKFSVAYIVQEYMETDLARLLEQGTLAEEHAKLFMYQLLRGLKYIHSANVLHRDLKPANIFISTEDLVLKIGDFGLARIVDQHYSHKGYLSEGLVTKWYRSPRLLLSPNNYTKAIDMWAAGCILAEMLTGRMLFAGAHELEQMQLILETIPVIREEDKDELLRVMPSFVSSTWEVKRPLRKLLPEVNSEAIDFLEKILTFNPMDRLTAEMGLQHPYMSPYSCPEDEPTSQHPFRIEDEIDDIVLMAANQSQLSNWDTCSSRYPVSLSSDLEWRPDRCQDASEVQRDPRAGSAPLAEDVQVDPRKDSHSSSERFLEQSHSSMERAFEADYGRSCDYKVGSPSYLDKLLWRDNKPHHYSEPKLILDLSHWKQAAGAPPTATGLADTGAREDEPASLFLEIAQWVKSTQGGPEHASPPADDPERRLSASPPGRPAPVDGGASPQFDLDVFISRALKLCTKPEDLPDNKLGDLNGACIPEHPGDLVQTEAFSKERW
UniProt P49137, whole entry, looked up: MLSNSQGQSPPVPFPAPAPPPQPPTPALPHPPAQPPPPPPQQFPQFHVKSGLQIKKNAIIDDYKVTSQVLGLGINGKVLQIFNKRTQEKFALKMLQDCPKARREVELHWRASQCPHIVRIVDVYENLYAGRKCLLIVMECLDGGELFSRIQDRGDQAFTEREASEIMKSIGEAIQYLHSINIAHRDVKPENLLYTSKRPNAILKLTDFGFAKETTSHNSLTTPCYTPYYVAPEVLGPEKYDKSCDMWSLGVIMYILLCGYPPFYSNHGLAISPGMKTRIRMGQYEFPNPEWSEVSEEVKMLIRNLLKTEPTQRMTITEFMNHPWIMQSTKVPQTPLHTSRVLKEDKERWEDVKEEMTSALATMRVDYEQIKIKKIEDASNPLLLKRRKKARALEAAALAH
UniProt Q9BUB5: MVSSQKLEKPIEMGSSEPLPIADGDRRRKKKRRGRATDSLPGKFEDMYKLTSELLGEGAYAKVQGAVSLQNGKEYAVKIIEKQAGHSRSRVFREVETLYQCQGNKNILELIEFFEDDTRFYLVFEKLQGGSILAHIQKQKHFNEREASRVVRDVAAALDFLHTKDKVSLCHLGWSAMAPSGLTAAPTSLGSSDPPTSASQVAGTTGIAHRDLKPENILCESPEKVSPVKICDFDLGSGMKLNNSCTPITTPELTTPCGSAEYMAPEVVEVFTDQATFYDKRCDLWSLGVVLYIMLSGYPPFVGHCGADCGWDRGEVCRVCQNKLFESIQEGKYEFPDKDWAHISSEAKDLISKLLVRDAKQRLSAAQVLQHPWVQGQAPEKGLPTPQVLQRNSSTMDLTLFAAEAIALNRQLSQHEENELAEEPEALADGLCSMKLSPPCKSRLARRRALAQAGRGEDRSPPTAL
UniProt Q16620, whole entry, looked up: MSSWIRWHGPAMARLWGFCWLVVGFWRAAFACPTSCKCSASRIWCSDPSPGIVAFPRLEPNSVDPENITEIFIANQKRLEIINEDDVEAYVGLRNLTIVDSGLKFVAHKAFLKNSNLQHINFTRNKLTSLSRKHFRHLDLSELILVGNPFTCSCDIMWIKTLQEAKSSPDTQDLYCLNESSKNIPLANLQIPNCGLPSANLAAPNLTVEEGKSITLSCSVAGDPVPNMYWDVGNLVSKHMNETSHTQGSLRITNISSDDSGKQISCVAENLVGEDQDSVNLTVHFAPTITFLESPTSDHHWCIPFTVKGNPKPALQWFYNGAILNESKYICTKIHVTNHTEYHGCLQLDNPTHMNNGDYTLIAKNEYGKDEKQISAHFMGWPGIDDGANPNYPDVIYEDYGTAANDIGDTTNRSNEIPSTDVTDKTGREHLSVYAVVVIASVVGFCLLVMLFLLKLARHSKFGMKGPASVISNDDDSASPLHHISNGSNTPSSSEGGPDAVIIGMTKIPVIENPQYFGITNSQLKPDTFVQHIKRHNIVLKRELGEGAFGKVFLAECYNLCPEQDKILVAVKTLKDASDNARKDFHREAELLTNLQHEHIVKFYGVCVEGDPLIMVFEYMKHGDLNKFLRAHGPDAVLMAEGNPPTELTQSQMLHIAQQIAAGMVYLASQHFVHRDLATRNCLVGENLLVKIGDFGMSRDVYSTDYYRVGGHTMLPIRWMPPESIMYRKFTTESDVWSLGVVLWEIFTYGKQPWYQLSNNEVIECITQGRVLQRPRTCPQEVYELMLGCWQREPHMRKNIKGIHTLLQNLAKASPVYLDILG
UniProt Q16288, whole entry, looked up: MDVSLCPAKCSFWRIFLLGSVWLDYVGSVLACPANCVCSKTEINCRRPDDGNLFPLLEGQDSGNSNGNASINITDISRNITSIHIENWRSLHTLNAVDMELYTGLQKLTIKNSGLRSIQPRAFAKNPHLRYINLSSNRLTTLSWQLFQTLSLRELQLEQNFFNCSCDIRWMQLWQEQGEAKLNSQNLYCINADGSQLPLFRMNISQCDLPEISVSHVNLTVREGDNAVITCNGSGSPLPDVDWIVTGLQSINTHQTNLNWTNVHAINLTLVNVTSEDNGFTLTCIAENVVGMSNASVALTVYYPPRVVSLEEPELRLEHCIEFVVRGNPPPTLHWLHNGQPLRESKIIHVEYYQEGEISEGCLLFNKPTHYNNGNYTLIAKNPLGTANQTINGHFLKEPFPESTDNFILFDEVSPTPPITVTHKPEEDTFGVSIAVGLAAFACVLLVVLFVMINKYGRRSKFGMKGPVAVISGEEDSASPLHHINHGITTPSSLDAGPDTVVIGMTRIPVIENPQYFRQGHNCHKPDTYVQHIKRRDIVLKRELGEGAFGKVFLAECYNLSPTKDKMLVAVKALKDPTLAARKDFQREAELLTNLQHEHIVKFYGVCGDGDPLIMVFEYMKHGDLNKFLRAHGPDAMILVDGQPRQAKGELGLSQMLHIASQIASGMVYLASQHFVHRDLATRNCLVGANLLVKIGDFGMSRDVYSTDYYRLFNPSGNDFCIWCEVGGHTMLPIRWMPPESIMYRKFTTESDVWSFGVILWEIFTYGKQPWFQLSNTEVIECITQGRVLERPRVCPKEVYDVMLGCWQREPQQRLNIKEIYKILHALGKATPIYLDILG
UniProt O96013: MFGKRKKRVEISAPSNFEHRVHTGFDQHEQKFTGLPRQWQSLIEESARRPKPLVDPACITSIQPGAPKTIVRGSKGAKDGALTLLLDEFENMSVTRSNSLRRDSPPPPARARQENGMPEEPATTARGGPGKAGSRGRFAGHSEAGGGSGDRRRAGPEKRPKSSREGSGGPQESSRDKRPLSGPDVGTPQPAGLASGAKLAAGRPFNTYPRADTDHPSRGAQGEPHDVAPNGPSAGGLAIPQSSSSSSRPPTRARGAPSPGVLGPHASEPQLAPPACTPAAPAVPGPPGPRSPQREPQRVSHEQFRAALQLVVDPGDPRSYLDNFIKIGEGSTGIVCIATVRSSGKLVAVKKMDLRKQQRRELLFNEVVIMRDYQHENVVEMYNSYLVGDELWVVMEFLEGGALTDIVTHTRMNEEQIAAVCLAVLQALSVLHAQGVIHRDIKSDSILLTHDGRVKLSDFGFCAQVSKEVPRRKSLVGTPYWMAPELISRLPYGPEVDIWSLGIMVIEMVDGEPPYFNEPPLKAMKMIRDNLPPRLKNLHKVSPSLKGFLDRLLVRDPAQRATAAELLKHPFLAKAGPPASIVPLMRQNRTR
UniProt Q96KB5: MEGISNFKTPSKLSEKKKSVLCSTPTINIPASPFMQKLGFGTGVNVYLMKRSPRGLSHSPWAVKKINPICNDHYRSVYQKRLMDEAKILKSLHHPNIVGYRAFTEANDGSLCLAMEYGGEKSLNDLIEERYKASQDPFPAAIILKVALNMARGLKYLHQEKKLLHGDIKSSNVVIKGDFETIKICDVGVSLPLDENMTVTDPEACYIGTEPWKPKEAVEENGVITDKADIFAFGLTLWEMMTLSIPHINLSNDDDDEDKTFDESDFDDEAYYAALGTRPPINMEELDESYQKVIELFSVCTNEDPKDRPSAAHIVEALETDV
UniProt P09619, whole entry: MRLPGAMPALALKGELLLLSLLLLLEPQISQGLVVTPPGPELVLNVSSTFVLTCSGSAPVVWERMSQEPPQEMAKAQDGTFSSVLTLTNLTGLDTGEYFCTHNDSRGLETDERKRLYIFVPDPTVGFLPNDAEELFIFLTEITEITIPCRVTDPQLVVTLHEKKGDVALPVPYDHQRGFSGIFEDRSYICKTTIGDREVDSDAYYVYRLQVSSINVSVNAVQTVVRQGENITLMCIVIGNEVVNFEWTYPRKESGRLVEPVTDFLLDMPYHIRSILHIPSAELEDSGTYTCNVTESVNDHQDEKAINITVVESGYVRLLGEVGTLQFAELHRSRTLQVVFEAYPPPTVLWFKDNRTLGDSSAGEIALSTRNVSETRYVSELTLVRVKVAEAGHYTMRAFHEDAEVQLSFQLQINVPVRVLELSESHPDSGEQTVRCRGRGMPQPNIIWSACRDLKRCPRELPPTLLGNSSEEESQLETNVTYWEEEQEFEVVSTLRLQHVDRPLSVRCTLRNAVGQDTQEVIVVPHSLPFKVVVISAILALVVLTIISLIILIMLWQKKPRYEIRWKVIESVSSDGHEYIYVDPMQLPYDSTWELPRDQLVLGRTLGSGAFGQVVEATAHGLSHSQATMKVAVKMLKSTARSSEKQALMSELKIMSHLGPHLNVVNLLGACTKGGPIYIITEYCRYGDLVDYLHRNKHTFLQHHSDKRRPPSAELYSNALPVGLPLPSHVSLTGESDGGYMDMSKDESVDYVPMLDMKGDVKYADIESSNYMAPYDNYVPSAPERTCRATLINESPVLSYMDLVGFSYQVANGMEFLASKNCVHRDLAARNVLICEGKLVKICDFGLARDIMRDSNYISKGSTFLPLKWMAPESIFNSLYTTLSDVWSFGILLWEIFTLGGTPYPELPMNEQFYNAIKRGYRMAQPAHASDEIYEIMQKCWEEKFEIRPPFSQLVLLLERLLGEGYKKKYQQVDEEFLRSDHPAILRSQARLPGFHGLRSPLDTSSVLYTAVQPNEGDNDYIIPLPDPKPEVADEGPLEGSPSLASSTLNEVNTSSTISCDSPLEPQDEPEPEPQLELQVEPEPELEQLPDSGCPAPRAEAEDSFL
UniProt Q15118, whole entry, looked up: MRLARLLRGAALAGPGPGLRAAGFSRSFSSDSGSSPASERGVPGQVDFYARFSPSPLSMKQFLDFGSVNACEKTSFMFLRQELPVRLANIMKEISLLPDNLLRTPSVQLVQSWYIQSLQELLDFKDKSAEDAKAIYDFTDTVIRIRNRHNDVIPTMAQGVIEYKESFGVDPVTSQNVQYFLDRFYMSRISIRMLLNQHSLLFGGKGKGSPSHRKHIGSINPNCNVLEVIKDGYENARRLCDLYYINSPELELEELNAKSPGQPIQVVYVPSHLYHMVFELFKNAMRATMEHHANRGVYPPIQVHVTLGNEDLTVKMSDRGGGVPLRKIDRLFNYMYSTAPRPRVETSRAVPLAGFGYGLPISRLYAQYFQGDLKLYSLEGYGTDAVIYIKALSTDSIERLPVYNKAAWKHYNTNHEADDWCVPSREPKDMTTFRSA

Columns and labels:
Assay in all cases: kinase-Nluc reporter destabilization hit call (1 = scored as downregulated) (binary); higher = compound decreases kinase abundance
Conditions in all cases: K562; 2-18 h
[1] = target: MAPK1 (UniProt P28482)
[2] = target: MAPK4 (UniProt P31152)
[3] = target: MAPKAPK2 (UniProt P49137)
[4] = target: MKNK1 (UniProt Q9BUB5)
[5] = target: NTRK2 (UniProt Q16620)
[6] = target: NTRK3 (UniProt Q16288)
[7] = target: PAK4 (UniProt O96013)
[8] = target: PBK (UniProt Q96KB5)
[9] = target: PDGFRB (UniProt P09619)
[10] = target: PDK1 (UniProt Q15118)

Measured: kinase-Nluc reporter destabilization hit call

Cc1cc(NC(=O)c2cccc(NC(=O)/C=C/CN(C)C)c2)ccc1Nc1nccc(-c2cccnc2)n1 (10 µM)
inactive: [1] 0 | [2] 0 | [3] 0 | [4] 0 | [5] 0 | [6] 0 | [7] 0 | [8] 0 | [9] 0 | [10] 0

O=C1NC(=O)C(=Cc2ccc(-c3ccc(F)cc3)o2)S1 (stereo in doubt) (10 µM)
inactive: [1] 0 | [2] 0 | [3] 0 | [4] 0 | [5] 0 | [6] 0 | [7] 0 | [8] 0 | [9] 0 | [10] 0

CC(C)CN(CC(=O)N1CCN(CC(OCc2ccc3ccccc3c2)c2ccc(Cl)cc2Cl)CC1)CC(C)C (stereo not given) [LYN-1604 (dihydrochloride)] (2.5 µM)
inactive: [1] 0 | [2] 0 | [3] 0 | [4] 0 | [5] 0 | [6] 0 | [7] 0 | [8] 0 | [9] 0 | [10] 0

CC(C)CC1(O)CCN(C(=O)c2ccc(NS(=O)(=O)c3cccc4nccnc34)cc2)CC1 (10 µM)
inactive: [1] 0 | [2] 0 | [3] 0 | [4] 0 | [5] 0 | [6] 0 | [7] 0 | [8] 0 | [9] 0 | [10] 0

CC(C)(NS(=O)(=O)c1ccc2c(Cl)cnc(N=C(N)N)c2c1)C(=O)O (10 µM)
inactive: [1] 0 | [2] 0 | [3] 0 | [4] 0 | [5] 0 | [6] 0 | [7] 0 | [8] 0 | [9] 0 | [10] 0

Cc1cc(Nc2nc(N[C@@H](C)c3ccc(F)cc3)c(C#N)cc2F)n[nH]1 (10 µM)
inactive: [1] 0 | [2] 0 | [3] 0 | [4] 0 | [5] 0 | [6] 0 | [7] 0 | [8] 0 | [9] 0 | [10] 0

3 entries from above, arranged by heavy-atom count, high to low.
CC(C)CN(CC(=O)N1CCN(CC(OCc2ccc3ccccc3c2)c2ccc(Cl)cc2Cl)CC1)CC(C)C (stereo not given) [LYN-1604 (dihydrochloride)] (2.5 µM)
inactive: [1] 0 | [2] 0 | [3] 0 | [4] 0 | [5] 0 | [6] 0 | [7] 0 | [8] 0 | [9] 0 | [10] 0

Cc1cc(Nc2nc(N[C@@H](C)c3ccc(F)cc3)c(C#N)cc2F)n[nH]1 (10 µM)
inactive: [1] 0 | [2] 0 | [3] 0 | [4] 0 | [5] 0 | [6] 0 | [7] 0 | [8] 0 | [9] 0 | [10] 0

CC(C)(NS(=O)(=O)c1ccc2c(Cl)cnc(N=C(N)N)c2c1)C(=O)O (10 µM)
inactive: [1] 0 | [2] 0 | [3] 0 | [4] 0 | [5] 0 | [6] 0 | [7] 0 | [8] 0 | [9] 0 | [10] 0

(next part)

CC(C)(C)NC(=O)c1cncn1C1CCN(c2ccc(-c3nnc(C(F)(F)F)o3)cn2)CC1 (10 µM)
inactive: [1] 0 | [2] 0 | [3] 0 | [4] 0 | [5] 0 | [6] 0 | [7] 0 | [8] 0 | [9] 0 | [10] 0

O=C(/C=C/c1ccc(O[C@@H]2O[C@H](CO)[C@@H](O)[C@H](O)[C@H]2O[C@@H]2OC[C@](O)(CO)[C@H]2O)cc1)c1ccc(O)cc1O [Isoliquiritin apioside] (10 µM)
inactive: [1] 0 | [2] 0 | [3] 0 | [4] 0 | [5] 0 | [6] 0 | [7] 0 | [8] 0 | [9] 0 | [10] 0

Cc1c(CN2CCN(C(=O)[C@H](C)O)CC2)sc2c(N3CCOCC3)nc(-c3cnc(N)nc3)nc12 [Apitolisib] (10 µM)
inactive: [1] 0 | [2] 0 | [3] 0 | [4] 0 | [5] 0 | [6] 0 | [7] 0 | [8] 0 | [9] 0 | [10] 0

COc1cc(C(N)=O)nc(-c2cccc(C#C[C@]3(O)CCN(C)C3=O)c2)c1 (10 µM)
inactive: [1] 0 | [2] 0 | [3] 0 | [4] 0 | [5] 0 | [6] 0 | [7] 0 | [8] 0 | [9] 0 | [10] 0

CC1CN(C(=O)Nc2ccc(Cl)c(Cl)c2)C(=Nc2ccc(F)cc2)S1 (stereo not given) (10 µM)
inactive: [1] 0 | [2] 0 | [3] 0 | [4] 0 | [5] 0 | [6] 0 | [7] 0 | [8] 0 | [9] 0 | [10] 0

O=C1c2ccc(Nc3ccc(F)cc3F)cc2CCc2ccc(OC[C@H](O)CO)cc21 [Skepinone-L] (2.5 µM)
inactive: [1] 0 | [2] 0 | [3] 0 | [4] 0 | [5] 0 | [6] 0 | [7] 0 | [8] 0 | [9] 0 | [10] 0

Cc1csc(-c2nnc(Nc3ccc(Oc4ncccc4-c4ccnc(N)n4)cc3)c3ccccc23)c1 (2.5 µM)
inactive: [1] 0 | [2] 0 | [3] 0 | [4] 0 | [5] 0 | [6] 0 | [7] 0 | [8] 0 | [9] 0 | [10] 0

CCn1c(=O)c(-c2ccc(-c3cncc(C)n3)cc2Cl)cc2cnc(NCCC3CCN(C)CC3)nc21 (10 µM)
inactive: [1] 0 | [2] 0 | [3] 0 | [4] 0 | [5] 0 | [6] 0 | [7] 0 | [8] 0 | [9] 0 | [10] 0

COc1cc(N2CCN(C)CC2)ccc1Nc1ncc2c(n1)N(C1CCC1)C(=O)N(c1c(C)cccc1C)C2 (2.5 µM)
inactive: [1] 0 | [2] 0 | [3] 0 | [4] 0 | [5] 0 | [6] 0 | [7] 0 | [8] 0 | [9] 0 | [10] 0

COc1cc(F)c(F)c(Nc2ccc(I)cc2F)c1NS(=O)(=O)C1(C[C@H](O)CO)CC1 [Refametinib] (10 µM)
inactive: [1] 0 | [2] 0 | [3] 0 | [4] 0 | [5] 0 | [6] 0 | [7] 0 | [8] 0 | [9] 0 | [10] 0

COc1cc2ncn(-c3cc(OCc4ccccc4S(C)(=O)=O)c(C#N)s3)c2cc1OC (10 µM)
inactive: [1] 0 | [2] 0 | [3] 0 | [4] 0 | [5] 0 | [6] 0 | [7] 0 | [8] 0 | [9] 0 | [10] 0

CN1C(=O)C(Cc2c[nH]c3ccccc23)NC1=S (stereo not given) [Necrostatin-1] (10 µM)
inactive: [1] 0 | [2] 0 | [3] 0 | [4] 0 | [5] 0 | [6] 0 | [7] 0 | [8] 0 | [9] 0 | [10] 0

COc1ccc([C@H]2c3[nH]c4ccc(Cl)cc4c3CCN2C(=O)Oc2ccc(Cl)cc2)cc1 (2.5 µM)
inactive: [1] 0 | [2] 0 | [3] 0 | [4] 0 | [5] 0 | [6] 0 | [7] 0 | [8] 0 | [9] 0 | [10] 0

O=C(NCCCNc1nc(Nc2cccc(NC(=O)N3CCCC3)c2)ncc1I)c1cccs1 (2.5 µM)
inactive: [1] 0 | [2] 0 | [3] 0 | [4] 0 | [5] 0 | [6] 0 | [7] 0 | [8] 0 | [9] 0 | [10] 0

Nc1ncnc2c1c(-c1ccc(Oc3ccccc3)cc1)nn2C1CCNCC1 [N-piperidine Ibrutinib (hydrochloride)] (10 µM)
inactive: [1] 0 | [2] 0 | [3] 0 | [4] 0 | [5] 0 | [6] 0 | [7] 0 | [8] 0 | [9] 0 | [10] 0

Nc1nccc(Oc2ccc(NC(=O)c3cn(COP(=O)(O)O)cc(-c4ccc(F)cc4)c3=O)cc2F)c1Cl (10 µM)
inactive: [1] 0 | [2] 0 | [3] 0 | [4] 0 | [5] 0 | [6] 0 | [7] 0 | [8] 0 | [9] 0 | [10] 0

O=C(/C=C/c1ccc(O)c(O)c1)c1ccc(O[C@@H]2O[C@H](CO)[C@@H](O)[C@H](O)[C@H]2O)c(O)c1O [Marein] (10 µM)
inactive: [1] 0 | [2] 0 | [3] 0 | [4] 0 | [5] 0 | [6] 0 | [7] 0 | [8] 0 | [9] 0 | [10] 0

CN(CC(=O)N(Cc1ccc(C2CCCCC2)cc1)c1ccc(C(=O)O)cc1)S(=O)(=O)c1c(F)c(F)c(F)c(F)c1F (2.5 µM)
inactive: [1] 0 | [2] 0 | [3] 0 | [4] 0 | [5] 0 | [6] 0 | [7] 0 | [8] 0 | [9] 0 | [10] 0

O=C(O)CCc1ccc(O)c(O)c1 [Dihydrocaffeic acid] (10 µM)
inactive: [1] 0 | [2] 0 | [3] 0 | [4] 0 | [5] 0 | [6] 0 | [7] 0 | [8] 0 | [9] 0 | [10] 0

CN(C)CCN(Cc1ccc(Cl)cc1)c1ccccn1 [Chloropyramine hydrochloride] (10 µM)
inactive: [1] 0 | [2] 0 | [3] 0 | [4] 0 | [5] 0 | [6] 0 | [7] 0 | [8] 0 | [9] 0 | [10] 0

N#CC(c1ccnc(NCCc2cccnc2)n1)c1nc2ccccc2s1 (stereo not given) (10 µM)
inactive: [1] 0 | [2] 0 | [3] 0 | [4] 0 | [5] 0 | [6] 0 | [7] 0 | [8] 0 | [9] 0 | [10] 0

Cc1noc(C)c1-c1ccc(-c2cc(C(N)=O)c(NC(N)=O)s2)c(O[C@H]2CCNC2)c1 (10 µM)
inactive: [1] 0 | [2] 0 | [3] 0 | [4] 0 | [5] 0 | [6] 0 | [7] 0 | [8] 0 | [9] 0 | [10] 0

COc1ccc(CC(=O)Nc2nc3c(s2)CCc2ccccc2-3)cc1OC (10 µM)
inactive: [1] 0 | [2] 0 | [3] 0 | [4] 0 | [5] 0 | [6] 0 | [7] 0 | [8] 0 | [9] 0 | [10] 0
